Measured values: patent US8445240B2, “Termite enzymes and uses thereof for in vitro conversion of lignin-containing materials to fermentable products” (University of Florida Research Foundation, Inc., priority 2009, dated 2013)
Some results were stated once for a whole list of compounds, not compound by compound. Some compounds share one range, which may span the group rather than tell each member.

Tests used:
RfLacA = RfLacA (Reticulitermes flavipes, UniProt D0E8H0); assay: RfLacA substrate specificity and kinetic parameters; conditions: 1 mM substrate
[1] = Characterisation of recombinant RfLacA and RfLacB isoforms; type: biochemical

Molecule | Specific activity against melanin precursors relative to that of 2,6-DMP (RfLacA) | optimal pH [1]
N[C@@H](Cc1ccc(O)c(O)c1)C(=O)O [L-DOPA] | 2.27-9.08% | –
RfLacA: recombinant R. flavipes gut laccase isoform 1, clone Lac6, SEQ ID NO.: 8 (protein, Reticulitermes flavipes; amino acid sequence Laccase Lacc-6) LIRLTIGQAVVSTQSTREAVVSTQSTRDTALSVYRSDAYIMLPCVLLACAIGVASATSVLLNSYLQPNDDIDRNTYLLNAKSNNCARICNGTEAPKICYYQWTIENYVTLSEACDNCPLNVTACYNAQCITADGYERSILSVNRKLPGPSIEVCLRDRVIVDITNNMAGRTTSIHWHGVFQKGSQYMDGVPMVTQCTIHEGDTFRYDFIANNEGTHFWHSHDGLQKLDGVTGNLVVRVPKNFDPNGQLYDFDLPEHKIFISDWLHLSADDHFPGLRATNPGQDANSFLINGRGRTLIGTQSTNTPYAQINVQWGRRYRLRIVGSLCTVCPTQLTIDGHKITVIATDGNSVAPARVDSLIIYSGERYDVVLEATNTEGSYWIHLKGLATCVGSRVYQLGVLQYENTTTNKLHALTPDPGYDGFPQPASYRVLNPENASCSIGSTGLCVTQLANSDPVPRDILTQLPDINYLLQFGFETFDSRSFFKAYDRYFVSPFLELLSSTVNNISFVSPPSPLLSQRGDVPDDILCPTGADGLPQCPGGNSYCTCVHVIKIKLGALVQIILSDQSPKSDLNHPFHIHGHAFYVLGMGQYAAGQTAQDLLNSLKSNVSSVSPAPVLKDTVAVPSGGYAIIKFRPKNPGYWFLHCHFLYHVATGMSVVLQVGETSDYPPTPDGFPKCGSFTPPVNTN | – | 7.0-7.5
RfLacB: recombinant R. flavipes gut laccase isoform 2, clone Lac12, SEQ ID NO.: 12 (protein, Reticulitermes flavipes; amino acid sequence Laccase Lacc-12) VYRSDAYIMLPCVLLACAIGVASATSVLLNSYLQPNDDIDRNTYLLNAKSNNCARICNGTEAPKICYYQWTIENYVTLSEACDNCPLNVTACYNAQCITADGYERSILSVNRKLPGPSIEVCLRDRVIVDITNNMAGRTTSIHWHGVFQKGSQYMDGVPMVTQCTIHEGDTLRYDFIANNEGTHFWHSHDGLQKLDGVTGNLVVRVPKNFDPNGQLYDFDLPEHKIFISDWLHLSADDHFPGLRATNPGQDANSFLINGRGRTLIGTQSTNTPYAQINVQWGRRYRLRIVGSLCTVCPTQLTIDGHKITVIATDGNSVAPARVDSLIIYSGERYDVVLEATNTEGSYWIHLKGLVTCVGSRVYQLGVLQYENTTTNKLHALTPDPGYDGFPQPASYRVLNPENASCSIGSTGLCVTQLANSDPVPRDILTQLPDINYLLQFGFKIFDSRSFFKAYDRYFVSPFLDLVSSTVNNISSVSPPSPLLSQRGDVPDDVLCPTGADGLPQCPGGNSYCTCVHVIKIKLGALVQIILSDQTPKSGLNHPFHLHGHAFYVLGMGQYAAGQTAQDLLNSLKSNVSSVSPAPVLKDTIAVPSGGYAIIKFRPKNPGYWFLHCHFLYHVATGMSVVLQVGETSDYPPTPDGFPKCGSFTPPVNTN | – | 7.0-7.5
